Reference: PubChem BioAssay AID2003 (Broad Institute, 2009)
This is one part of the list. Results with a measured potency or affinity are listed apart. Where no call is shown, the source marks the result inconclusive.

Test: PubChem AID 2003
Conditions: H4 cells, SNCA 5'UTR luciferase reporter, luminescence; at 12 µM (top of the series) unless noted

Row | Compound | activation
1 | COC(=O)N1N=C(c2ccc(Br)cc2)CC1(O)C(F)(F)F (stereo not drawn) | 21%
2 | Nc1c(C(=O)Nc2ccccc2Cl)nnn1-c1ccc2c(c1)OCCO2 | 16.2%
3 | O=C(Nc1ccccc1)c1cc2n(n1)C(C(F)(F)F)CC(C1CC1)N2 (stereo not drawn) | 84.3%
4 | Cc1cc(C)c(NN=c2c(=O)c3ccccc3c2=O)c(C)c1 | 22.5%
5 | Cc1ccc(/C=N/n2cc(-c3ccccc3)[nH]c2=S)s1 | 41.3%
6 | Cc1nc2nc(-c3ccc(Cl)cc3)nn2c(C)c1Cl | 54.7%
7 | O=C(Nc1ccccc1)OCCOc1ccccc1 | 65.5%
8 | Cc1cc2c([nH]c3ccccc32)c2c1OC(C)(C)C=C2 | 75%
9 | COc1ccc(/C=N/N=C2/SCC(=O)N2Cc2ccccc2)cc1 | 58.8%
10 | O=C(Nc1ccc(N2CCOCC2)c(Cl)c1)c1ccc(Br)o1 | 100%
11 | Cc1ccc(NC(=O)Nc2ccc3oc(C)nc3c2)cc1 | 47.5%
12 | Cc1nc2c3cnn(-c4ccc(C)c(C)c4)c3ncn2n1 | 101%
13 | Cc1cccc(NC(=O)Nc2ccc3c(c2)OCO3)n1 | 109%
14 | Cc1ccc(-n2c(C)cc(/C=C3\SC(=O)NC3=O)c2C)cc1 | 116%
15 | CC(=O)Nc1ccc2c(c1)ncn2-c1ccccc1 | 44.7%
16 | O=C(Nc1cccc(Cn2cccn2)c1)c1cc2c(s1)CCCC2 | 41.7%
17 | N#C/C(=C\c1ccc(N2CCCCC2)o1)C(=O)Nc1cccc(Br)c1 | 133%
18 | Nc1ccccc1C(=O)NNC1=C(C(=O)C(F)(F)F)CCC1 | 51.6%
19 | COc1ccc(C2=NC(c3ccccc3)CO2)cc1 (stereo not drawn) | 64.8%
20 | O=C(OCc1ccccc1)c1ccc2c(c1)-c1ccccc1C2=O | 48.6%
21 | c1ccc(N2CCN(c3nc4cc5c(cc4s3)OCO5)CC2)cc1 | 63.1%
22 | COc1ccc(NC(C)=O)cc1S(=O)(=O)Nc1ccccc1C(=O)NCCc1ccccc1 | 15.9%
23 | COc1cccc(-c2nc3sc4c(c3c(=O)[nH]2)CCCCC4)c1 | 76.2%
24 | COc1ccccc1-c1cnn2c(NC3CCCC3)cc(C)nc12 | 77%

Row | Compound | activation
25 | COc1ccc(S(=O)(=O)N2CCCC(C(=O)Nc3ccc(NC(=O)c4ccccn4)cc3)C2)cc1 (stereo not drawn) | 48.2%
26 | Cc1cc(C)[n+]2n1C(=O)C(c1ccccc1)=C2[O-] | 34%
27 | O=C(NC1CCCCCCC1)NC1CCCCC1 | 54.3%
28 | CCOc1ccccc1N/C=C(\C#N)c1nc2ccccc2n1C | 33.1%
29 | Cc1c(C(=O)Nc2ccccn2)oc2ccccc12 | 71.1%
30 | COc1cccc(COC(=O)Nc2ccccc2F)c1 | 40%
31 | O=C(CNC(=O)c1ccc(F)cc1)c1ccc(Cl)cc1 | 47.1%
32 | Cc1ccc(N=Cc2c(O)[nH]c3ccccc23)c([N+](=O)[O-])c1 | 47.9%
33 | Cc1cc(C(=O)NC2CCCc3c2cnn3-c2cccc(C)c2C)no1 (stereo not drawn) | -22.5%
34 | O=C(NCCCN1CCCC1=O)C(=O)Nc1cccc(F)c1 | 58.2%
35 | COc1ccc(-c2cc(C(=O)Nc3cccc(Cl)c3)no2)cc1 | 54.9%
36 | Cc1c(C)c2ccc(OCC(=O)Nc3cccnc3)c(C)c2oc1=O | 53%
37 | COc1ccc2cc(-c3csc(-c4cccnc4)n3)ccc2c1 | 63.4%
38 | Oc1c(C2=NCCNC(C(F)(F)F)=C2)ccc2ccccc12 | 89.6%
39 | Cc1cc(/C=C(\C#N)C(=O)NCc2cccs2)c(C)n1-c1ccccc1F | 58.6%
40 | COc1ccccc1-c1nc(-c2ccc(Br)cc2)no1 | 72.8%
41 | COc1ccc(C2Nc3ccccc3C(=O)N2c2ccc(C)cc2)cc1Cn1nnc2ccccc21 (stereo not drawn) | 56.9%
42 | O=C(Nc1cccc(Cl)c1)c1ccc2c(=O)n3c(nc2c1)CCCCC3 | 115%
43 | CC(C)c1ccc(/C=N/NC(=O)c2cccc(Cl)c2)cc1 | 42%
44 | CC(Oc1ccccc1)C(=O)NC1=NCCS1 (stereo not drawn) | 80%
45 | CCc1nnc(NC(=O)CSc2nc3c(cc2C#N)CCC3)s1 | -10.9%
46 | CC(C)c1ccc(NC(=O)NC2CCCCC2)cc1 | 51.3%
47 | Cc1ccc(N(CC(=O)Nc2ccc(-c3nc4ccc(C)cc4s3)cc2)S(C)(=O)=O)cc1 | 81.5%
48 | Cc1nc2cc(NC(=O)CCS(=O)(=O)c3ccccc3)ccc2s1 | 49.7%

Copied from the list:
In activation, `O=C(NCCCN1CCCC1=O)C(=O)Nc1cccc(F)c1` reads 58.2%
In activation, `CCOc1ccccc1N/C=C(\C#N)c1nc2ccccc2n1C` reads 33.1%
In activation, `O=C(NC1CCCCCCC1)NC1CCCCC1` reads 54.3%
In activation, `CC(Oc1ccccc1)C(=O)NC1=NCCS1` (stereo not drawn) reads 80%
In activation, `O=C(Nc1cccc(Cl)c1)c1ccc2c(=O)n3c(nc2c1)CCCCC3` reads 115%
In activation, `Cc1nc2cc(NC(=O)CCS(=O)(=O)c3ccccc3)ccc2s1` reads 49.7%

Going on with the list.

Row | Compound | activation
49 | O=c1sc(N2CCN(c3ccccc3F)CC2)nc2ccsc12 | 143%
50 | O=C(NC1CC1)c1cccc(Nc2ccc(-c3ccc4c(c3)OCCO4)nn2)c1 | 53%
51 | Cc1nc2c(-c3ccccc3)cnn2c(N2CCOCC2)c1C | 74.5%
52 | O=C(COc1cccc2cccnc12)Nc1ccccc1 | 46.9%
53 | CCCc1ccc2oc(C(=O)N3CCC[C@H]3CO)c(C)c2c1 | 72.2%
54 | O=C(N/N=C/c1ccc2nccnc2c1)c1ccccc1O | 42.7%
55 | CCCCOc1ncnc2c1[nH]c1ccc(OC)cc12 | 12.7%
56 | CCOC(=O)CSc1nc(-c2ccc3c(c2)OCO3)ccc1C#N | 45.9%
57 | Cc1ccc(OCc2nc(-c3ccccc3)no2)c(C)c1 | 90.5%
58 | Cc1ccccc1/C=C/c1nc2ccccc2c(=O)[nH]1 | 28.4%
59 | Nc1c(-c2cccs2)cnn1-c1nc(-c2ccc(F)cc2)cs1 | 134% [at 6 µM]
60 | O=C(CSc1cn(Cc2ccccc2)c2ccccc12)Nc1nccs1 | 64.2%
61 | Cc1cccc(COc2ccc(/C=N/NC(=O)c3nnn(-c4nonc4N)c3COc3ccc(F)cc3)cc2)c1 | 29.7%
62 | c1ccc2c(c1)oc1c(Nc3ccc(CN4CCOCC4)cc3)ncnc12 | 34.4%
63 | CCSc1nnc2c(n1)[nH]c1c(C)cccc12 | 93.8%
64 | COc1ccc(-c2cc(C(=O)N3CCN(c4ccccn4)CC3)c3ccccc3n2)cc1 | 32.1%
65 | N/C(=N\OC(=O)c1ccco1)c1ccccc1 | 54.3%
66 | O=C(N/N=C\c1cccc(Cl)c1)c1n[nH]c2c1CCCC2 | 82.2%
67 | CCOc1ccc(NC(c2ccccn2)c2oc(CO)cc(=O)c2O)cc1 (stereo not drawn) | 61.1%
68 | Cc1ccc(-c2c(C)sc(=NC(=O)c3ccco3)n2C)cc1 | 27%
69 | CC(C)(C)c1cc(NC(=O)Nc2ccccc2)no1 | 80.4%
70 | Cc1ccc(Sc2cnc3ccccc3n2)cc1 | 69.8%
71 | COc1ccc(Cn2c(-c3ccc(Cl)cc3)c[n+]3ccccc23)cc1 | 87.2%
72 | O=C(NC1CCCC1)c1cc2c(ccc3ccccc32)o1 | 124%

Row | Compound | activation
73 | O=C(O)c1ccc(N/N=C/c2ccc(-c3cc(Cl)ccc3Cl)o2)cc1 | 69.2%
74 | CCCC(=O)Nc1sc2c(c1C#N)CCCCC2 | 52.9%
75 | COc1ccc(-c2nnn(Cc3ccccc3F)n2)cc1 | 87.3%
76 | Cc1ccccc1-n1c(C)nnc1SCc1nc2ccccc2s1 | 84.4%
77 | Cc1ccsc1C1NC(=O)c2c(sc3c2CCCC3)N1 (stereo not drawn) | 68.7%
78 | O=C(Nc1ccc(-c2cn3ccccc3n2)cc1)c1ccco1 | 180% [at 6 µM]
79 | C=C1CCC2[C@](C)(CO)[C@H](O)CC[C@@]2(C)[C@@H]1C/C=C1\C(=O)OC[C@H]1O (stereo partly drawn) | 4.9%
80 | O=C1N=C(N2CCOCC2)S/C1=C1\C(=O)N(Cc2ccccc2)c2ccccc21 | 88.2%
81 | O=C(COc1ccccc1Cl)c1ccc2c(c1)CCCC2 | 76.1%
82 | CNc1nc(-c2ccc3c(c2)CCN3C(=O)c2cccc(F)c2)cs1 | 100% [at 6 µM]
83 | Oc1[nH]c2ccccc2c1C=Nc1ccc2c(c1)OCO2 | 107%
84 | Cc1cccc(-c2cc3nc4c(c(N5CCOCC5)n3n2)CCCC4)c1 | 52.6%
85 | CN(C)c1ccc(/C=N/n2ncc3ccccc32)cc1 | -49.7%
86 | COc1ccc(C(=O)N=c2sc3c(C)ccc(OC)c3n2C)cc1OC | 133%
87 | O=C(Nc1ccc(-c2cn3ccsc3n2)cc1)C1CC1 | 83.1%
88 | O=C(NCCSc1ccccc1)c1ccco1 | 68.2%
89 | N#C/C(=C\c1ccc(Sc2ccccc2)o1)c1nc2ccccc2[nH]1 | 90.5%
90 | CCOC(=O)c1cnc(SCc2ccccc2)nc1N | 7%
91 | Cc1nc(NC(=O)C2CC2)sc1C(=O)Nc1ccccc1Cl | 63.8%
92 | Nc1c(C(=O)c2ccccc2)oc2ccc(Br)cc12 | 63.3%
93 | Cc1cccc(-c2nsc(SCC(=O)N3CCCC3)n2)c1 | 38.5%
94 | O=C(c1ccccc1)c1cc2cc(Cl)ccc2[nH]1 | 98.4%
95 | CCN(CC)c1ccc(/C=N/N2CCOCC2)c(O)c1 | 61.8%
96 | CCn1c(C)cc(/C=C2/NC(=O)N(c3ccccc3)C2=O)c1C | 67.8%

Row | Compound | activation
97 | CN1CCN(c2ccc(-c3ccnn3C(=O)Nc3cccc(C(F)(F)F)c3)cc2)CC1 | 34.7%
98 | O=C(/C=C/c1ccc2c(c1)OCO2)Nc1nncs1 | 36.6%
99 | Fc1cccc(CSc2ccc(-c3ccco3)nn2)c1 | 56.4%
100 | Cc1nc(NC(=O)c2cccs2)ccc1Br | 144%
101 | Nc1nnc(CC(=O)N/N=C/c2cccc(OCCOc3ccccc3)c2)s1 | 26.9%
102 | O=C(N=c1nc2ccccn2s1)c1ccccc1 | 79.3%
103 | CC(/C=N/Nc1ccc2nncn2n1)=C\c1ccccc1 | 50.4%
104 | COc1cccc(C=O)c1OCCCOc1cccc2cccnc12 | 69.2%
105 | CSc1ccc(CNC(=O)Cc2ccc(NC(=O)C3=C(C)OCCS3)cc2)cc1 | 20.6%
106 | Cc1cc(NC(=O)c2noc3c2CCCCC3)no1 | 66%
107 | CCc1ccc(OCc2ccc(C(=O)OC)o2)cc1 | 49.8% [at 6 µM]
108 | CCN(CC)c1ccc(C2Nc3cccc4cccc(c34)N2)cc1 | 246%
109 | Cc1cc(C(=O)CSc2nnnn2C)c(C)n1Cc1ccco1 | 27.3%
110 | [O-][n+]1onc2c1CCc1c-2nn(-c2ccccc2Cl)[n+]1[O-] | 69%
111 | Clc1ccc(-c2nsc(N3CCOCC3)n2)c(Cl)c1 | -22.7%
112 | CCOC(=O)C1CCN(c2ccc(-c3cccs3)nn2)CC1 | 60.6%
113 | CC(C)(C)c1ccc(OCc2nc(-c3ccccn3)no2)c(Br)c1 | 158% [at 6 µM]
114 | CC(=O)c1ccc(NC(=S)NCCc2cccc(Cl)c2)cc1 | 144%
115 | Cn1cccc1/C=C1\CCC/C(=C\c2cccn2C)C1=O | 47.4%
116 | COc1c(C)cccc1C(=O)Nc1ccc(N2CCOCC2)c(Cl)c1 | 79%
117 | Cc1cc2oc3cc(NCCC4CCCN4C)ccc3c(=O)c2cc1C (stereo not drawn) | 94%
118 | N/C(=N\N=C\c1ccc(O)cc1)c1nonc1N | 89.6%

Filtered by structure: the entries above containing a tert-butyl group (2)
Row | Compound | activation
69 | CC(C)(C)c1cc(NC(=O)Nc2ccccc2)no1 | 80.4%
113 | CC(C)(C)c1ccc(OCc2nc(-c3ccccn3)no2)c(Br)c1 | 158% [at 6 µM]
